Test results reported in PubChem BioAssay AID274 (DTP/NCI, 2004).
The list does not hold the whole screen: it gathers tests that were run many times, whatever their T/C, doses with no T/C, and many T/C values between a quarter and a half above the control. Further doses and runs are listed elsewhere. T/C: endpoint of the treated group in % of that of the vehicle group. Some doses have a count of surviving animals in place of a T/C: the source files T/C as zero there, which appears to mark a toxic dose or a test without result, not a measured value. Some doses without a T/C left all or most animals alive at the check, yet need not have been tolerated: the source hardly ever lists a survival T/C far under the control, and the zero likely stands for such cases as well. Counts of survivors are from the toxicity check (mostly the fifth day) where no day follows; animals may have died later. Schedule codes are those of the source, taken here to give the interval after Q, in days (D) or hours (H), and the number of doses after X. Additions like (4×) give the number of equal values in this list. Some doses were run more than once; the values are given in rising order. For survival time, the PubChem record calls one and a half times the control and up active, and a quarter to a half above the control has no call in these data; cut-offs in other NCI protocols can differ. Some T/C values carry the count of animals alive at the toxicity check (mostly the fifth day); without a count, all were alive then.

Test system: BDF1 mice, Lewis lung carcinoma iv, survival T/C
Test: NCI In Vivo Anticancer Drug Screen. Data for tumor model Lewis Lung Carcinoma (intravenous) in B6D2F1 (BDF1) mice
Details: T/C endpoint: median survival time, higher T/C = longer survival
Procedure: The antitumor activity of compounds was measured in mice bearing transplantable tumors. Survival or tumor size were measured and the results are expressed as the measurement made in the treated group (T) divided by the measurement made in the vehicle treated control group (C). The tumor model used in this assay is Lewis Lung Carcinoma (intravenous) in B6D2F1 (BDF1) mice

[1] = dose: 2.0 mg/kg/injection, schedule: Q01DX009 (ip), vehicle: saline
[2] = dose: 4.0 mg/kg/injection, schedule: Q01DX009 (ip), vehicle: saline
[3] = dose: 8.0 mg/kg/injection, schedule: Q01DX009 (ip), vehicle: saline
[4] = dose: 100.0 mg/kg/injection, schedule: Q01DX009 (ip), vehicle: saline with Tween-80
[5] = dose: 200.0 mg/kg/injection, schedule: Q01DX009 (ip), vehicle: saline
[6] = dose: 200.0 mg/kg/injection, schedule: Q01DX009 (ip), vehicle: saline with Tween-80
[7] = dose: 50.0 mg/kg/injection, schedule: Q01DX009 (ip), vehicle: saline
[8] = dose: 25.0 mg/kg/injection, schedule: Q01DX009 (ip), vehicle: Klucel (hydroxypropylcellulose) (HPC)
[9] = dose: 6.0 mg/kg/injection, schedule: Q01DX009 (ip), vehicle: saline
[10] = dose: 400.0 mg/kg/injection, schedule: Q01DX009 (ip), vehicle: saline
[11] = dose: 14.0 mg/kg/injection, schedule: Q01DX001 (ip), vehicle: saline
[12] = dose: 20.0 mg/kg/injection, schedule: Q01DX001 (ip), vehicle: saline
[13] = dose: 20.0 mg/kg/injection, schedule: Q01DX001 (iv), vehicle: saline

For `OC(C1CO1)C(O)C1CO1` (stereo not drawn), the T/C [1] was 131 % of control, the T/C [2] was 140 % of control and the survivor count [3] was 10 of 10. The survivor count (dose: 16.0 mg/kg/injection, schedule: Q01DX009 (ip), vehicle: saline) was 7 of 9.
`O=C(O)CC(NC(=O)CP(=O)(O)O)C(=O)O.[NH-]C1CCCCC1[NH-].[Pt+2]` (stereo not drawn) was tested, and the survivor count (dose: 12.5 mg/kg/injection, schedule: Q01DX009 (ip), vehicle: dextrose) was 10 of 10, the survivor count (dose: 25.0 mg/kg/injection, schedule: Q01DX009 (ip), vehicle: dextrose) was 9 of 10 and the survivor count (dose: 50.0 mg/kg/injection, schedule: Q01DX009 (ip), vehicle: dextrose) was 0 of 10. For the same compound, the survivor count (dose: 100.0 mg/kg/injection, schedule: Q01DX009 (ip), vehicle: dextrose) was 0 of 10.
In the case of `COc1cc2c(c(OC)c1O)-c1ccc(OC)c(=O)cc1[C@@H](NC(=O)C(F)(F)F)CC2`, the survivor count (dose: 5.0 mg/kg/injection, schedule: Q01DX009 (ip), vehicle: Klucel (hydroxypropylcellulose) (HPC)) is reported as 7 of 10 and the survivor count (dose: 10.0 mg/kg/injection, schedule: Q01DX009 (ip), vehicle: Klucel (hydroxypropylcellulose) (HPC)) is reported as 4 of 10.
In the case of `CCC1CN2C(=N1)c1ccccc1-c1cc(Cl)ccc12` (stereo not drawn), the T/C (dose: 12.5 mg/kg/injection, schedule: Q01DX009 (ip), vehicle: saline with Tween-80) is reported as 132 % of control and the survivor count [4] is reported as 1 of 10.
With `CN1CCN(c2ccc3nc(-c4ccc5nc(-c6ccc(O)cc6)[nH]c5c4)[nH]c3c2)CC1` the survivor count [5] was 10 of 10.
For `C1CN1c1nc(N2CC2)nc(N2CC2)n1`, the T/C (dose: 0.5 mg/kg/injection, schedule: Q01DX009 (ip), vehicle: suspension in saline) was 143 % of control, the survivor count (dose: 1.0 mg/kg/injection, schedule: Q01DX009 (ip), vehicle: suspension in saline) was 10 of 10 and the survivor count (dose: 2.0 mg/kg/injection, schedule: Q01DX009 (ip), vehicle: suspension in saline) was 10 of 10.
With `Cc1cc2nc(Cc3nc4cc(C)c(C)cc4[nH]3)[nH]c2cc1C` the survivor count [6] was 2 of 10.
With `[CH3][Sn]([CH3])([Cl])[S]CCN` the survivor count [7] was 5 of 10.
In the case of `O=C(CN1CC1)NCCCCCCCCNC(=O)CN1CC1`, the T/C [8] is reported as 141 % of control and the survivor count (dose: 50.0 mg/kg/injection, schedule: Q01DX009 (ip), vehicle: Klucel (hydroxypropylcellulose) (HPC)) is reported as 10 of 10.
With `CC(C)n1cnc2c(Cl)ncnc21` the T/C [4] was 130 % of control.
With `COc1cc2c(c(OC)c1OC)-c1ccc(OC)c(=O)cc1[C@@H](NC(C)=O)CC2` the survivor count (dose: 0.75 mg/kg/injection, schedule: Q01DX009 (ip), vehicle: saline) was 8 of 10, the survivor count (dose: 1.5 mg/kg/injection, schedule: Q01DX009 (ip), vehicle: saline) was 8 of 10 and the survivor count (dose: 3.0 mg/kg/injection, schedule: Q01DX009 (ip), vehicle: saline) was 2 of 10. The survivor count [9] was 1 of 10, the survivor count (dose: 12.5 mg/kg/injection, schedule: Q01DX009 (ip), vehicle: saline) was 0 of 10 and the survivor count (dose: 25.0 mg/kg/injection, schedule: Q01DX009 (ip), vehicle: saline) was 0 of 10. The survivor count [7] was 0 of 10, the survivor count (dose: 100.0 mg/kg/injection, schedule: Q01DX009 (ip), vehicle: saline) was 0 of 10 and the survivor count [5] was 0 of 10. The survivor count [10] was 0 of 10.
`CCCCc1ccc2nc(NC(=O)OC)[nH]c2c1` was tested, and the survivor count [6] was 10 of 10.
`O=C(NCCN1CC1)C(=O)NCCN1CC1` was tested, and the survivor count [9] was 10 of 10.
In the case of `CC(C)C(=O)OCC1OC(n2cnc3c(=S)nc(N)[nH]c32)C(OC(=O)C(C)C)C1OC(=O)C(C)C` (stereo not drawn), the survivor count (dose: 12.5 mg/kg/injection, schedule: Q01DX009 (ip), vehicle: Klucel (hydroxypropylcellulose) (HPC)) is reported as 10 of 10 and the survivor count [8] is reported as 8 of 10.
In the case of `COc1cccc2c1C(=O)c1c(O)c3c(c(O)c1C2=O)C[C@@](O)(C(=O)CO)C[C@@H]3OC1CC(N)C(O)C(C)O1` (stereo partly drawn), the survivor count (dose: 0.5 mg/kg/injection, schedule: Q04DX003 (ip), vehicle: saline) is reported as 4 of 8, the T/C (dose: 1.8 mg/kg/injection, schedule: Q01DX009 (ip), vehicle: saline) is reported as 145 % of control and the T/C [1] is reported as 126 % of control. For the same compound, the T/C (dose: 2.74 mg/kg/injection, schedule: Q04DX003 (ip), vehicle: saline) was 126 % of control, the survivor count (dose: 3.67 mg/kg/injection, schedule: Q01DX009 (ip), vehicle: saline) was 8 of 8 and the survivor count [2] was 10 of 10 (2×). For the same compound, the T/C (dose: 4.8 mg/kg/injection, schedule: Q01DX001 (ip), vehicle: saline) was 104, 108, 114, 140 % of control, the T/C (dose: 6.86 mg/kg/injection, schedule: Q01DX001 (ip), vehicle: saline) was 109, 119, 123, 159 % of control and the T/C (dose: 6.86 mg/kg/injection, schedule: Q01DX001 (iv), vehicle: saline) was 128 and 137 % of control. For the same compound, the survivor count [3] was 10 of 10, the survivor count (dose: 8.0 mg/kg/injection, schedule: Q04DX003 (ip), vehicle: saline) was 8 of 8 (2×) and the T/C (dose: 9.8 mg/kg/injection, schedule: Q01DX001 (ip), vehicle: saline) was 123 (2×), 152, 421 % of control. The T/C (dose: 9.8 mg/kg/injection, schedule: Q01DX001 (iv), vehicle: saline) was 128 % of control (2×), the T/C (dose: 10.0 mg/kg/injection, schedule: Q01DX001 (im), vehicle: water) was 137 % of control and the T/C [11] was 114 [6 of 8 alive], 123, 126 % of control. The survivor count [11] was 8 of 8, the T/C (dose: 14.0 mg/kg/injection, schedule: Q01DX001 (iv), vehicle: saline) was 127 % of control and the survivor count (dose: 16.7 mg/kg/injection, schedule: Q01DX001 (im), vehicle: water) was 6 of 8. The T/C [12] was 92 % of control [7 of 8 alive], the survivor count [12] was 7 of 7 and 8 of 8 and the T/C [13] was 133 % of control. For the same compound, the survivor count [13] was 5 of 8 and 8 of 8.
`CC1(c2ccc(Cl)cc2)OC(=O)C(=Cc2ccc([N+](=O)[O-])s2)C(=O)O1` (stereo not drawn) was tested, and the survivor count [6] was 6 of 10.
In the case of `CC(CNC(=O)CCOS(C)(=O)=O)NC(=O)CCOS(C)(=O)=O` (stereo not drawn), the T/C [5] is reported as 132 % of control and the survivor count [10] is reported as 10 of 10.
With `O=C(O)C1CC1.[Ag]` the survivor count (dose: 25.0 mg/kg/injection, schedule: Q01DX009 (ip), vehicle: distilled water + Tween-80) was 2 of 10.
For `Cc1ccccc1N(CC1CO1)CC1CO1` (stereo not drawn), the survivor count [10] was 5 of 10.
In the case of `COC(=O)Nc1cccc(-c2nc3ccc(NC(=O)OC)cc3c(=O)n2-c2ccccc2)c1`, the survivor count (dose: 128.0 mg/kg/injection, schedule: Q01DX009 (ip), vehicle: Klucel (hydroxypropylcellulose) (HPC)) is reported as 1 of 10, the survivor count (dose: 256.0 mg/kg/injection, schedule: Q01DX009 (ip), vehicle: Klucel (hydroxypropylcellulose) (HPC)) is reported as 9 of 10 and the survivor count (dose: 256.0 mg/kg/injection, schedule: Q01DX009 (ip), vehicle: saline) is reported as 4 of 10.
`COc1cccc2c1C(=O)c1c(O)c3c(c(O)c1C2=O)C[C@@](O)(C(=O)CO)C[C@@H]3OC1CC(N)CC(C)O1` (stereo partly drawn) was tested, and the T/C (dose: 0.75 mg/kg/injection, schedule: Q01DX009 (ip), vehicle: water) was 130 % of control, the survivor count (dose: 1.5 mg/kg/injection, schedule: Q01DX009 (ip), vehicle: water) was 10 of 10 and the survivor count (dose: 3.0 mg/kg/injection, schedule: Q01DX009 (ip), vehicle: water) was 10 of 10. The survivor count (dose: 6.0 mg/kg/injection, schedule: Q01DX009 (ip), vehicle: water) was 7 of 10.
`O=C1C2(Cl)C3(Cl)C4(Cl)C(Cl)(Cl)C5(Cl)[C@]3(Cl)C1(Cl)[C@]5(Cl)C24Cl` (stereo partly drawn) was tested, and the survivor count (dose: 25.0 mg/kg/injection, schedule: Q01DX009 (ip), vehicle: saline with Tween-80) was 4 of 10.
For `O=C1C=CC(=O)O1` (tested in a mixture with another compound), the survivor count [10] was 4 of 10.
For `COc1ccc(C(Cn2ccnc2)Sc2ccc(Cl)c(Cl)c2)cc1` (stereo not drawn), the survivor count [4] was 7 of 10 and the survivor count [6] was 0 of 10.
